Our source for the binding values is patent US20100028342A1.

Amino acid sequences for entries named in this document (tags omitted). Residues count along the entry.
UniProt P08069, residues 31-1367: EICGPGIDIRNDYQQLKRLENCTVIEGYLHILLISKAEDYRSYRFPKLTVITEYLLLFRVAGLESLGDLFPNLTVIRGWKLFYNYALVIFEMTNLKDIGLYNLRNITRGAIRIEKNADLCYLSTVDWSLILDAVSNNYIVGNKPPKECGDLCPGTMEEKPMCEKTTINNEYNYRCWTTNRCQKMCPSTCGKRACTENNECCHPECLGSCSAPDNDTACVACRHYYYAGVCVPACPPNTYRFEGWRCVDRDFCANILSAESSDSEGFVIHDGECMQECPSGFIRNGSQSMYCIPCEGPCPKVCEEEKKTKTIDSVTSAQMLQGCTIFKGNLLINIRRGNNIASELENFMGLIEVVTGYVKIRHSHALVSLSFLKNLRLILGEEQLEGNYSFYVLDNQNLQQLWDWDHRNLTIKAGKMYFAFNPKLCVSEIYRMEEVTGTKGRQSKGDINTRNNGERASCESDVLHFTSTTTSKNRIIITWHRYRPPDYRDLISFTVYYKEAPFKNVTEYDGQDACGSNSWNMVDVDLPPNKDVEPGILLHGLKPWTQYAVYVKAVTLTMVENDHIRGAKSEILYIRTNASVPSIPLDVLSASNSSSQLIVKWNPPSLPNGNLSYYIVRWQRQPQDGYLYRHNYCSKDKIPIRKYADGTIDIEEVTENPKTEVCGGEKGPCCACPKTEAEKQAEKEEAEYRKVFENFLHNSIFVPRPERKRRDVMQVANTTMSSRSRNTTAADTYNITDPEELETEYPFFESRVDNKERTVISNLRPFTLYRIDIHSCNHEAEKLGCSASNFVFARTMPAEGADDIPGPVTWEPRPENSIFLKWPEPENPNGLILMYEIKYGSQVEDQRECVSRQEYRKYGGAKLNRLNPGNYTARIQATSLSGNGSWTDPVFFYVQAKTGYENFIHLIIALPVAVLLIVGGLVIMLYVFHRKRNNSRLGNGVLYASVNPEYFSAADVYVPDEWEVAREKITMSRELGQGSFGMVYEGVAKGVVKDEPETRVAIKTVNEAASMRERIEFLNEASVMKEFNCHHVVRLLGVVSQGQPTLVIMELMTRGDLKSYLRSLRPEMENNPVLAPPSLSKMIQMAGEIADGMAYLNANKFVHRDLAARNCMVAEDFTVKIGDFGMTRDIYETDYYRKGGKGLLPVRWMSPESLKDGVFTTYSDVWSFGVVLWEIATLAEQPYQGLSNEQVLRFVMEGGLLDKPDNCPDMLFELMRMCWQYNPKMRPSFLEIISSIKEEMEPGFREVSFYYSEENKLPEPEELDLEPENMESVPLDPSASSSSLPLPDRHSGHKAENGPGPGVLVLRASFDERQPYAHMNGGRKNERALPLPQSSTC
UniProt P01344, residues 25-91: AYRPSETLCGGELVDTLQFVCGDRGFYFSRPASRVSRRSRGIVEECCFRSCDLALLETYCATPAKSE

The target in the test is native human IGF-IR on human tumor cells (human) (UniProt P08069). The experiment in a line: competition with 125I-IGF-I for binding to native IGF-IR on MCF7 cells; cold IGF-II titrated.

No constants are given. Whether binding was seen depends on the method and setting. Some entries that bind do so weakly or less than the wild type.

Turning to “IGF-II (from UniProt P01344 25-91) (ligand)”, the binding entry is listed as “binds”.
